The data set is described as follows: Chemiluminescence intensity over time after triggering the dioxetane with alkaline amine-based 221 buffer. Particulars: compare FIG. 5 and FIG. 1. The class given is physicochemical.

Consider `C=Cc1ccc(C2(OC)OOC23C2CC4CC(C2)CC3C4)cc1O` (stereo not shown) [Example 5], for which the “intensity of luminescence relative to the corresponding unsubstituted compound” value is on record as “at least 20 ×”.

For the origin of these results see patent publication US20220390459A1, “RAPID, HIGH-INTENSITY CHEMILUMINESCENT DIOXETANES” (Beckman Coulter, Inc., priority 2019, published 2022).
